Reference: patent US9658235B2, “Pi-extended acedan derivatives, their application for two-photon microscopy imaging, and their application for two-photon microscopy imaging of amyloid-beta plaque in an alzheimer's disease animal model” (POSTECH ACADEMY-INDUSTRY FOUNDATION, priority 2015, dated 2017)
Some results were stated once for a whole list of compounds, not compound by compound.

Test: Two-photon absorption efficiency by two-photon induced fluorescence method
Format: physicochemical
Settings: compared with acedan

| Structure (SMILES) | two-photon absorption efficiency value (10 μM, long wavelength (>850 nm)) [GM] | two-photon absorption efficiency value (10 μM in ethanol, long wavelength (>900 nm)) [GM] |
| --- | --- | --- |
| CN(C)c1ccc2cc3c(cc2c1)OC1CCCC(=O)C1=C3 (centres unmarked) [compound 4a, 8-(dimethylamino)-2,3,4a-tetrahydro-1H-benzo[b]xanthene-1-one] | < 100 | – |
| CN(C)c1ccc2cc3c(cc2c1)OCC(C=C(C#N)C#N)=C3 [compound 8a, 2-(((8-dimethylamino)-2H-benzo[g]chromene-3-yl)methylene)malononitrile] | – | < 100 |
